Data as given in PubChem BioAssay AID1259405 (NCATS, 2018).
In all, the deposit lists about 50,000 reagents; shown is an unselected part. About 4,000 of all reagents (8%) were called active. 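Mouse siRNA library applied to hamster cells; one well for each siRNA.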 Entries without a mark were called inactive. The numbers tell different reagents against one gene apart. No sequences are given here.

Test: 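Mouse-designed siRNAs used to find CHO productivity engineering targets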 (primary screen)
Cells: Chinese hamster CHO-K1 ovary cells with stable secreted eGFP expression
Knock-down reagent: single siRNA against mouse genes, 0.8 pmol siRNA per well (2 µl of 400 nM stock)
Time to read-out: 3 days
Detection: 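Per-well intracellular GFP measured by laser scanning cytometry, plus viability from ATP luminescence, each relative to plate median of non-targeting control wells, in %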
Direction: GFP, % of control: higher = more GFP per well, higher productivity; viability (ATP), % of control: higher = more viable cells (more ATP)
Active means: 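a knock-down is called active if GFP reaches 120% or more of non-targeting control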

| target gene | siRNA no. | GFP, % of control | viability (ATP), % of control |
| --- | --- | --- | --- |
| Vps39 | 1 | 74.5 | 55.1 |
| Vps39 | 2 | 58.8 | 57.7 |
| Vps39 | 3 | 83.5 | 99.5 |
| Arhgap8 | 1 | 60.8 | 82.7 |
| Arhgap8 | 2 | 141 (active) | 89.4 |
| Arhgap8 | 3 | 91.2 | 46.9 |
| Aldh16a1 | 1 | 40 | 56.1 |
| Aldh16a1 | 2 | 49.7 | 65.2 |
| Aldh16a1 | 3 | 77.5 | 68 |
| Fam199x | 1 | 86.2 | 98.2 |
| Fam199x | 2 | 74.2 | 83.8 |
| Fam199x | 3 | 115 | 95.9 |
| Or2r2 | 1 | 79.8 | 66.2 |
| Or2r2 | 2 | 79.6 | 85 |
| Or2r2 | 3 | 69.9 | 63.8 |
| Cyc1 | 1 | 73.7 | 59.4 |
| Cyc1 | 2 | 65.9 | 68.7 |
| Cyc1 | 3 | 62.6 | 67.2 |
| Dzip1 | 1 | 102 | 72.4 |
| Dzip1 | 2 | 76.5 | 76.5 |
| Dzip1 | 3 | 64.8 | 65.5 |
| Frmd3 | 1 | 70.1 | 70.7 |
| Frmd3 | 2 | 94.5 | 46.6 |
| Frmd3 | 3 | 73.3 | 77.2 |
| Or11l3 | 1 | 42.4 | 52.3 |
| Or11l3 | 2 | 87.3 | 74.7 |
| Or11l3 | 3 | 88.8 | 75.5 |
| Mpz | 1 | 54 | 83.9 |
| Mpz | 2 | 62.5 | 60.1 |
| Prkg2 | 1 | 48.8 | 66.4 |
| Nfyb | 1 | 88.4 | 50.9 |
| Nfyb | 2 | 88.3 | 97.2 |
| Nfyb | 3 | 68.9 | 92.1 |
| Pkia | 1 | 63.1 | 76.1 |
| Pkia | 2 | 115 | 89.3 |
| Kcnk2 | 1 | 117 | 107 |
| Kcnk2 | 2 | 67.2 | 80.3 |
| Kcnk2 | 3 | 94.8 | 63.8 |
| Ube2g2 | 1 | 35.4 | 51.5 |
| Ube2g2 | 2 | 106 | 80.6 |
| Ube2g2 | 3 | 96.9 | 125 |
| Kansl2 | 1 | 58.7 | 95.7 |
| Kansl2 | 2 | 74 | 102 |
| Kansl2 | 3 | 58.6 | 89 |
| Thbd | 1 | 107 | 99.1 |
| Thbd | 2 | 67.8 | 58.8 |
| Thbd | 3 | 64.3 | 50.2 |
| Rasgrp2 | 1 | 135 (active) | 89.5 |
| Rasgrp2 | 2 | 100 | 71.3 |
| Rasgrp2 | 3 | 110 | 58.7 |
| Cmpk1 | 1 | 87.1 | 70.2 |
| 9930012K11Rik | 1 | 124 (active) | 77.2 |
| 9930012K11Rik | 2 | 82.5 | 66.5 |
| 9930012K11Rik | 3 | 107 | 72 |
| Lyrm7 | 1 | 80.9 | 92.2 |
| Lyrm7 | 2 | 106 | 80.9 |
| Lyrm7 | 3 | 41.4 | 44.4 |

Part of the list above, reduced to “viability (ATP), % of control”.
Aldh16a1 #2: 65.2
Aldh16a1 #3: 68
Fam199x #1: 98.2
Fam199x #2: 83.8
Fam199x #3: 95.9
Or2r2 #1: 66.2
Or2r2 #2: 85
Or2r2 #3: 63.8
Cyc1 #1: 59.4
